## Primary screen of a compound library

Data taken from ChEMBL document CHEMBL3988442, “University of Dundee, Small-Polar-MMV Screening Library” (2021).

Mtb growth Cornell: 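Whole-cell assay for inhibitors of Mycobacterium tuberculosis growth, labelled Cornell in the record; the read-out is not stated. The concentration is filed as 10 mM, unlikely as a test dose, so the dose is not known. The record gives no direction; compounds strong in two other growth screens of this library score well above the rest, so higher reads as stronger inhibition. Of about 53,000 compounds tested this way, about 900 (1.7%) reached 50% or more in at least one test.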
Mtb heat-shock: 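Assay on Mycobacterium tuberculosis, filed only as a heat shock assay from Cornell; the read-out is not stated. The concentration is filed as 10 mM, unlikely as a test dose, so the dose is not known. Direction is inferred from retests: higher values go with stronger inhibition. About 69,000 compounds were tested under these conditions; 1.4% (about 930) showed 50% or more at least once.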

Each number is a percent effect as filed.
The controls that fix the scale are not given in the record; negative values are as filed.
This is an unselected part of the compounds tested.
A dash means the value is not listed here; it may have been measured.

structure	Mtb growth Cornell	Mtb heat-shock
[H][C@@]12CCN(C[C@@H]1CN1CCc3ccccc3C1)[C@@H](CNC(=O)COC)C2	-5.765%	0.3861%
CCCSc1nc(N)c(NC(=O)c2ccc(OC)c(OC)c2)c(=O)[nH]1	-31.04%	8.259%
O=C1CC(c2ccc(C(=O)O)cc2)c2ncn(-c3ccc(F)cc3)c2N1 (centres unmarked)	-10.5%	0.6653%
COc1ccc(-c2nc(C3CCNCC3)cc3c2ncn3C)cc1.Cl.Cl	-26.71%	-11.88%
COc1c(C2CCCN2C(=O)c2scnc2C)c(C)nn1C (centres unmarked)	-17.81%	-5.971%
CSc1ccccc1C(=O)N1C[C@@H](N(C)C)[C@H](c2ccc(C)cc2)C1	-35.63%	-22.72%
COCCN1CC(=O)c2sc(NC(C)C)nc2C1	-26.15%	-8.117%
O=C(c1ccc(CNC2CCSC2)cc1)N1CCCC1 (centres unmarked)	-40.12%	-0.5848%
CC[C@H](C)[C@H](N)C(=O)N1CC(=O)c2sc(Nc3ccc(F)cc3)nc2C1	22.98%	12.97%
CN(Cc1ccc([S+](C)[O-])cc1)c1cncc(Cl)n1 (centres unmarked)	0.8469%	2.666%
[H][C@@]12CCC(=O)N(CCCOC)[C@]1([H])CCN(Cc1cc3ccccc3o1)C2	-17.12%	7.613%
[H][C@]12CC[C@]([H])(CN(Cc3ccccc3)C1)N(Cc1scnc1C)C2	10.92%	-22.22%
CCc1nccn1C1CCCN(C(=O)c2cc3nc(C)ccc3o2)C1 (centres unmarked)	-1.99%	16.18%
Cc1noc2ncnc(N3CCC(O)(Cn4ccnc4)CC3)c12	-	-15.11%
COc1c(C2CCCN2C(=O)c2csc(C(C)C)n2)c(C)nn1C (centres unmarked)	-0.1812%	20.82%
CC(C#N)CNC(=O)Nc1ccc(-c2cc[nH]n2)cc1 (centres unmarked)	20.57%	-4.672%
CCc1ncc(CN(C)C2CCN(C(C)C)CC2)cn1.O=C(O)CC(O)(CC(=O)O)C(=O)O	-18.38%	-40.69%
CC/C(C)=C/CCN1CCN(C)C2(CCNC(=O)CC2)C1 (centres unmarked)	10.42%	10.74%
CC(C)Oc1ccc(C(=O)NCc2ccnc(N3CCCC3)c2)cn1	9.741%	46.64%
CN(Cc1ccncn1)c1nccc(CCC(F)(F)F)n1	-20.7%	39.21%
Cc1ccc(CNC(=O)NCc2ccco2)s1	14.07%	13.86%
CC(C)(NC(=O)c1cnc(C(C)(C)C)s1)C(N)=O	-28.15%	-8.566%
CC(CNC(=O)c1cnccn1)Oc1cccc(Br)c1 (centres unmarked)	13%	26.12%
COc1ccc(C2=Nn3c(CCN)nnc3-c3ccccc3C2)cc1	25.48%	12.48%
CC(=O)N1CCN(c2cc(CCN)nc(C3CC3)n2)CC1.Cl	-63.09%	-10.37%
CN(Cc1ccncc1)C1COC2(CCN(Cc3ccsc3)CC2)C1.O=C(O)C(F)(F)F.O=C(O)C(F)(F)F.O=C(O)C(F)(F)F (centres unmarked)	-2.3%	-14.74%
NC(=O)CSc1nnc2n1N=CN(c1ccccc1F)C2	8.682%	13.75%
N#Cc1ccc(-c2nnc(CSCCN3CCOCC3)o2)cc1	-28.21%	-2.005%
CCc1cccc(N2CCC(NC(=O)C3CCC3)CC2)c1	28.1%	0.635%
Cc1cc(C)c(CNC(=O)N2CCN(c3nccs3)CC2)c(=O)[nH]1	-	-39.59%
CC(=O)Nc1ccc(CNC(=O)CNCc2snnc2C)cc1	-	-118.9%
CS(=O)(=O)N1CCCN(C(=O)c2ccc(Cn3ccccc3=O)o2)CC1	14.76%	22.39%
C=C(C)CN1CCC(NC(=O)NCCc2ccc(N(C)C)cc2)CC1	14.92%	-14.8%
CC(C)NC(=O)CCC(=O)N1CCC(c2noc3cc(F)ccc23)CC1	-48.35%	74.12%
CCc1nc(CNCC2CCCN2c2cccnn2)no1 (centres unmarked)	-	-17.07%
CCOc1ncccc1CNC(=O)c1c(C)oc(C)c1C	-	9.342%
CSc1cccc(NC(=O)Nc2c(O)oc3ccccc3c2=O)c1	7.471%	-5.507%
O=C(O)C(F)(F)F.[H][C@]12CCC(=O)N(c3cccnc3)[C@@]1([H])CCN2C(=O)c1occc1C	30.46%	2.74%
Nc1ccnc(N2CCCC(CO)(Cc3cccc(Cl)c3)C2)n1 (centres unmarked)	22.45%	-6.208%
CC(C)(C)c1nnc2n1C(C(=O)N1CCOCC1)CC2 (centres unmarked)	-	9.904%
Cn1c(-c2ccc(F)cc2)cn2cc(C(=O)N3CCC(N)C3)nc2c1=O (centres unmarked)	-	23.6%
O=C(O)C(F)(F)F.[H][C@@]12CN(Cc3c(C)noc3C)C[C@]1([H])CC(F)(F)C2	14.36%	12.93%
CC(C)OCc1ncn2c1CN(Cc1ccc(F)cc1)CCC2.O=C(O)C(F)(F)F	4.122%	-13.8%
Cc1c[nH]nc1C1CCCCN1C(=O)CC1(O)CCCCC1 (centres unmarked)	-	-19.47%
CC(C)N(C)Cc1cnc2n1CCN(C(=O)Cc1cccs1)C2C.O=C(O)C(F)(F)F (centres unmarked)	-21.08%	4.302%
[H][C@]12CN(Cc3cnn(C)c3)C[C@@]1([H])OCCN(C(=O)c1cccn1C)C2	-5.239%	7.975%
CCNc1ccnc(NC2CCN(S(C)(=O)=O)CC2)n1	6.368%	0.3299%
Cc1ccc(NC2CCN(C(=O)c3ccncc3)CC2)nn1	-	-20.68%
CCN(CC)CCSc1nnc(N2CCN(c3ccc(F)cc3)CC2)s1	-1.248%	-3.813%
COc1ccc2c(c1)OC1(CCN(Cc3ccc(C)cc3)CC1)CC2=O	21.2%	1.291%

Repeated from the top, 5 entries:

| structure | Mtb growth Cornell | Mtb heat-shock |
|---|---|---|
| `[H][C@@]12CCN(C[C@@H]1CN1CCc3ccccc3C1)[C@@H](CNC(=O)COC)C2` | -5.765% | 0.3861% |
| `CCCSc1nc(N)c(NC(=O)c2ccc(OC)c(OC)c2)c(=O)[nH]1` | -31.04% | 8.259% |
| `O=C1CC(c2ccc(C(=O)O)cc2)c2ncn(-c3ccc(F)cc3)c2N1` (centres unmarked) | -10.5% | 0.6653% |
| `COc1ccc(-c2nc(C3CCNCC3)cc3c2ncn3C)cc1.Cl.Cl` | -26.71% | -11.88% |
| `COc1c(C2CCCN2C(=O)c2scnc2C)c(C)nn1C` (centres unmarked) | -17.81% | -5.971% |